{"source": "PubChem BioAssay AID1259308 (NCATS, 2017)", "assay": "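Genes whose loss raises luciferase production in HEK293 cells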 (primary screen)", "system": "human HEK293 embryonic kidney cells stably expressing firefly luciferase (HEK-CMV-Luc2-Hygro)", "reagents": "single siRNA against human genes, 0.8 pmol siRNA per well", "timing": "72 h", "measured": "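Luciferase light (ONE-Glo) measured on one replicate plate set and viability (CellTiter-Glo) on the other, scaled to a negative control siRNA, with robust z-scores and luciferase per cell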", "direction": "total luciferase, z-score: higher = more reporter protein produced", "call rule": "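An siRNA counts as active if its total luciferase robust z-score exceeds 3; genes with two or more such siRNAs out of three were retested with fresh siRNAs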", "meaning of the calls": "active = raised luciferase; inactive = no rise", "note": "In all, the deposit lists about 59,000 reagents; this is an unselected part. About 1,510 of all reagents (2.6%) count as active. 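Calls use total luciferase alone and ignore viability, so some active siRNAs may act by altering cell number.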 Entries without a mark were called inactive. The numbers tell different reagents against one gene apart. Not all columns of the deposit are shown. Reagent sequences are not shown."}
{"gene":"TGFB2-AS1 (TGFB2 antisense RNA 1)","siRNA no.":1,"total luciferase, z-score":0.0873}
{"gene":"TGFB2-AS1 (TGFB2 antisense RNA 1)","siRNA no.":2,"total luciferase, z-score":0.333}
{"gene":"TGFB2-AS1 (TGFB2 antisense RNA 1)","siRNA no.":3,"total luciferase, z-score":1.49}
{"gene":"MAGEB6B (MAGE family member B6B)","siRNA no.":1,"total luciferase, z-score":2.74}
{"gene":"MAGEB6B (MAGE family member B6B)","siRNA no.":2,"total luciferase, z-score":-0.923}
{"gene":"MAGEB6B (MAGE family member B6B)","siRNA no.":3,"total luciferase, z-score":-1.04}
{"gene":"NPTX1 (neuronal pentraxin 1)","siRNA no.":1,"total luciferase, z-score":-0.234}
{"gene":"NPTX1 (neuronal pentraxin 1)","siRNA no.":2,"total luciferase, z-score":0.0701}
{"gene":"NPTX1 (neuronal pentraxin 1)","siRNA no.":3,"total luciferase, z-score":0.408}
{"gene":"BAGE4 (BAGE family member 4)","siRNA no.":1,"total luciferase, z-score":1.32}
{"gene":"BAGE4 (BAGE family member 4)","siRNA no.":2,"total luciferase, z-score":-0.493}
{"gene":"BAGE4 (BAGE family member 4)","siRNA no.":3,"total luciferase, z-score":1.18}
